No constants are given. Whether binding was seen depends on the method and setting. Binding seen in cells or lysates may run through a third protein. Some binding calls cover weakened binding; strength is not graded here. Blank lines part the entries; values can stand above or below the substance they belong to.
Columns and labels:
[1] = biological target: GST-LIC1^WT (389–523 a.a.) (human) (UniProt Q9Y6G9); test: pull-down; GST-LIC1 (389–523; WT or FFAA) on glutathione-agarose beads, HEK293T lysates expressing RUFY1-FLAG or 2x-FKBP-GFP-RUFY1 (WT or mutants), 2 h, 4°C; anti-FLAG or anti-GFP blot; only the target purified
[2] = biological target: RUFY1 (endogenous, HEK293T) (human (endogenous in HEK293T)) (UniProt Q96T51); test: co-IP; endogenous proteins, HEK293T lysates; anti-RUFY1 antibody on Protein-A/G beads
[3] = biological target: Arl8b (endogenous, HeLa) (human (endogenous in HeLa)) (UniProt Q9NVJ2); test: co-IP; endogenous proteins, HeLa lysates; anti-Arl8a/b antibody-conjugated agarose beads, or anti-Rab8 antibodies on Protein A/G beads
[4] = biological target: GST-LIC1^FFAA (F447A/F448A) (human) (UniProt Q9Y6G9); test: pull-down; GST-LIC1 (389–523; WT or FFAA) on glutathione-agarose beads, HEK293T lysates expressing RUFY1-FLAG or 2x-FKBP-GFP-RUFY1 (WT or mutants), 2 h, 4°C; anti-FLAG or anti-GFP blot; only the target purified

Amino acid sequences for entries named in this document (tags omitted). A change or cut given only in a name is not applied to a line headed by its entry. Chains listed by the source or under a name are the forms on record and can include a tag or linker. Residues count along the entry.
GST-LIC1^WT (389–523 a.a.) (Q9Y6G9, residues 389-523): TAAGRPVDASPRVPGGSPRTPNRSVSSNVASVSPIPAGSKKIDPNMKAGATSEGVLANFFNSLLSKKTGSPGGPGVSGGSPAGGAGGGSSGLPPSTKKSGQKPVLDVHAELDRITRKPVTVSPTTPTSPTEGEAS
GST-LIC1^FFAA (F447A/F448A) (Q9Y6G9, form named): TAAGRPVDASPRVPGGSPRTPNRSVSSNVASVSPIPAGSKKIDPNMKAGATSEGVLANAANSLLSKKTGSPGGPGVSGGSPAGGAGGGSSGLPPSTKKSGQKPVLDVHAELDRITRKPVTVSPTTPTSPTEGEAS
UniProt Q96T51: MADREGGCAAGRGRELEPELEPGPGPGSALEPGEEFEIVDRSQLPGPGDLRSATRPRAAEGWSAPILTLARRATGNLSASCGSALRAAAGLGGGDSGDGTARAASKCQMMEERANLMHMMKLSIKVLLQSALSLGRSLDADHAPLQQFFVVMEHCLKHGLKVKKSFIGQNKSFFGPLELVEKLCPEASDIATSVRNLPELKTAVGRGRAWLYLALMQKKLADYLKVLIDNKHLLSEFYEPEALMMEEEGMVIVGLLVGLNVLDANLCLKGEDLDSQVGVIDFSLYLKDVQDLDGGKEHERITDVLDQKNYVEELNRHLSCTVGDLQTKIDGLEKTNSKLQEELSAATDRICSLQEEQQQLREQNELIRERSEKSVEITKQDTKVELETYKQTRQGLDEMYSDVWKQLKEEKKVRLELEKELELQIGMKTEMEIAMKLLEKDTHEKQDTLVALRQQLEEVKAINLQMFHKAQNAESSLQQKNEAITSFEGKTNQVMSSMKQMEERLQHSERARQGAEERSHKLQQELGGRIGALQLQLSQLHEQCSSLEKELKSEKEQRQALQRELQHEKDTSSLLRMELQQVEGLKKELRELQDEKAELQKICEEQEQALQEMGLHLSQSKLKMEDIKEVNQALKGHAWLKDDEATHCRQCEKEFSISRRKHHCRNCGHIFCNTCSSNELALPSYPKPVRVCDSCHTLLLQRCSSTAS
UniProt Q9NVJ2: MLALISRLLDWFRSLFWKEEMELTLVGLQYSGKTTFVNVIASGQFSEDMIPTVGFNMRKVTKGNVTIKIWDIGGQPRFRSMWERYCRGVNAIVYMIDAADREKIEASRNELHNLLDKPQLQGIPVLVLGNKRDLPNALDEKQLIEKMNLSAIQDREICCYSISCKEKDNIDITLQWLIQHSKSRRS
UniProt Q9Y4G2: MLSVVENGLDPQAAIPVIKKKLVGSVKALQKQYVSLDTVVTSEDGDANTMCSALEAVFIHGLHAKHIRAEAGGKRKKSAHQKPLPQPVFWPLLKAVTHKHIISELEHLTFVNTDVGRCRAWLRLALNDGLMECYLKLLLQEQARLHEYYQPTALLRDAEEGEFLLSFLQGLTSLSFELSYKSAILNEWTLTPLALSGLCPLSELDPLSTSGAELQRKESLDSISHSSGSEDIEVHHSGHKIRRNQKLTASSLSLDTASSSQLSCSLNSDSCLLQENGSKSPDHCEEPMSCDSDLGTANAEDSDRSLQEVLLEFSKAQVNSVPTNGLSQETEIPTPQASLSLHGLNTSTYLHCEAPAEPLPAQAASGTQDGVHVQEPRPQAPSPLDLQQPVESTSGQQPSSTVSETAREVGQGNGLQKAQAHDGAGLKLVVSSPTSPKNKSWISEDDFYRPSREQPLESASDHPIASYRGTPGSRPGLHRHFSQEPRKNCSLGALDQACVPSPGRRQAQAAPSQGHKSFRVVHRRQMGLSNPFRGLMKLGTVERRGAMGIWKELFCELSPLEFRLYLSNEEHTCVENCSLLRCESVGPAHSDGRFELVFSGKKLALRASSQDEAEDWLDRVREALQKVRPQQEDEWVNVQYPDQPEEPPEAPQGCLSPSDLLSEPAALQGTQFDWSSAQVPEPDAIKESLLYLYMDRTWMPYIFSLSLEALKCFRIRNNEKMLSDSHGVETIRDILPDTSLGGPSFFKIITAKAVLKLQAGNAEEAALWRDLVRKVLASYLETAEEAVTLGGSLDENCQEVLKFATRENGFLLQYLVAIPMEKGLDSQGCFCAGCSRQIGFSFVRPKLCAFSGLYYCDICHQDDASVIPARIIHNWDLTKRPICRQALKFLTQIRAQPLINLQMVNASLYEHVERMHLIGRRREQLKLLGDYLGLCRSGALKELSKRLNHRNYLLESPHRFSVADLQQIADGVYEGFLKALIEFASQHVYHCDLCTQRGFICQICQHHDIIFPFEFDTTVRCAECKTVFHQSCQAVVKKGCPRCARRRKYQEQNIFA

binding [1]: binds
Substance: 2x-FKBP-GFP-RUFY1 (FL) (from UniProt Q96T51 1-708)

binding [2]: binds
Substance: p150^glued (dynactin) (from UniProt Q14203-1 1-1278)

binding [3]: binds
Substance: PLEKHM1 (endogenous, HeLa) (from UniProt Q9Y4G2 1-1056)

binding [4]: binds | binding [1]: binds
Substance: RUFY1 (WT)-FLAG (longer isoform, Rabip4′) (from UniProt Q96T51 1-708)
